Library screening results

Amino acid sequences for entries named in this document (tags omitted).
UniProt E9BF75, entry or part of it: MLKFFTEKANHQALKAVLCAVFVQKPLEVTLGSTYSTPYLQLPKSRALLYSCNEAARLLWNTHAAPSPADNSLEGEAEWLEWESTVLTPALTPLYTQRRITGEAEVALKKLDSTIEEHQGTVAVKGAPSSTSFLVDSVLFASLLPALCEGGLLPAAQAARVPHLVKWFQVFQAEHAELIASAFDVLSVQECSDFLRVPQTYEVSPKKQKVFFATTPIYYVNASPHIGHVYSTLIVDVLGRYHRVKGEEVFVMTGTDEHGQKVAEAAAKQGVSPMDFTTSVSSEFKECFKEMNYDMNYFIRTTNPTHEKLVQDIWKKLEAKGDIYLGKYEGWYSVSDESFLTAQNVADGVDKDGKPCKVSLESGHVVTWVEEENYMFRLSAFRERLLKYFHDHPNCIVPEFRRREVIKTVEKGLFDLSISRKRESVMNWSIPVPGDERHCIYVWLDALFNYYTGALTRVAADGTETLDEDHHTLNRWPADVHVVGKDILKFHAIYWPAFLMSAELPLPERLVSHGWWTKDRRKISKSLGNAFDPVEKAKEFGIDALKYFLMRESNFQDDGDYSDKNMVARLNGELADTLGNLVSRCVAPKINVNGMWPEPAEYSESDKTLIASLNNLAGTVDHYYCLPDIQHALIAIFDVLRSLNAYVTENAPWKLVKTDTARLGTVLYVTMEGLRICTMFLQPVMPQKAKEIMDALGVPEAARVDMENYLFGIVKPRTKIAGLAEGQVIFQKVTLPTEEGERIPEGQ

Measurements from “University of Dundee, Small-Polar-MMV Screening Library” (2021), ChEMBL document CHEMBL3988442.

A: 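Assay on Mycobacterium tuberculosis, filed only as a heat shock assay from Cornell; the read-out is not stated. The concentration is filed as 10 mM, unlikely as a test dose, so the dose is not known. Direction is inferred from retests: higher values go with stronger inhibition. Of about 69,000 compounds tested this way, about 930 (1.4%) reached 50% or more in at least one test.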
B: 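Primary screen of methionyl-tRNA synthetase; the read-out is not stated. Target: Methionyl-tRNA synthetase (putative), Leishmania donovani (UniProt E9BF75). The test concentration is not given. Values are per cent inhibition. About 68,000 compounds were tested under these conditions; 0.035% (about 24) showed 50% or more at least once.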
C: 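Whole-cell assay for inhibitors of Mycobacterium tuberculosis growth, labelled Cornell in the record; the read-out is not stated. The concentration is filed as 10 mM, unlikely as a test dose, so the dose is not known. The record gives no direction; compounds strong in two other growth screens of this library score well above the rest, so higher reads as stronger inhibition. About 53,000 compounds were tested under these conditions; 1.7% (about 900) showed 50% or more at least once.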

All values are in %. How 0% and 100% were set is not recorded. Most values in the screen are low, and negative values occur. The compounds are a random part of those screened.

COc1cccc(OC)c1C(=O)N1CC(=O)N(C2CCC2)CC(O)C1 (stereo not drawn) gave A: 20.73%; B: 11.23%; C: 1.234%.
N#CCCN(Cc1ccccn1)C(=O)Nc1cccc(F)c1 gave A: 9.595%; B: 10.87%; C: 6.911%.
CC(C)N(C(=O)c1ccccc1-c1nc2c([nH]1)CCNC2)C(C)C gave A: -9.658%; B: 0.2457%; C: 1.668%.
CCn1ccnc1C1CCN(Cc2cccc(Cl)c2)CC1 gave A: -25.71%; B: 6.115%; C: -1.025%.
Cc1ccc2cc(C(=O)NCCn3nc4ccccn4c3=O)[nH]c2c1 gave A: 16.15%; B: 3.067%; C: -9.208%.
COCc1cc(CNC(=O)c2c(C)c(C)cc(C)c2C)n[nH]1 gave A: 2.878%; B: 11.54%; C: 7.538%.
Cc1cc(C)nc(N2CCC(C(=O)Nc3n[nH]c(C)n3)CC2)n1 gave A: 8.893%; B: 8.924%; C: 29.06%.
CN(C)CCO[C@@H]1CC[C@H]2[C@H]1OCCN2C(=O)c1ccncc1 gave B: 16.24%.
CSc1ccc(S(=O)(=O)NC2CNC(=O)C2)cc1 (stereo not drawn) gave A: -10.29%; B: 9.363%; C: -15.77%.
Cc1ccc(S(=O)(=O)N2CC[C@@H](O)C2)c(F)c1 gave A: 7.88%; B: 16.45%; C: 9.178%.
Cc1oc(-c2ccco2)nc1CN1CCc2cncnc2C1 gave A: 8.891%; B: 17.14%; C: -30.4%.
CCC(CC)NC(=O)c1ncn2c1CN(CC)S(=O)(=O)c1ccccc1-2.O=C(O)C(F)(F)F gave A: 1.879%; C: 7.532%.
CSc1cc2c(cc1NC(=O)N(C)Cc1ccncc1)OCCO2 gave A: -22.36%; B: 6.283%; C: 8.426%.
CN(C)[C@@H]1CN(Cc2ccccc2O)C[C@H]1c1cn(C)c2ccccc12 gave B: 5.607%.
CCNC(=O)c1ccc(N2CCCC(c3nccn3C(C)C)C2)nc1 (stereo not drawn) gave A: -6.445%; B: 21.46%; C: 13.59%.
Cc1nc(O)cc(CN2C[C@H](NC(=O)C3CCCC3)[C@@H](C3CC3)C2)n1 gave A: -127.9%; B: 11.78%.
C[C@H]1CN(C(=O)c2cccnc2)C[C@@]12CCN(CCN1CCCC1)C2=O gave A: 20.95%; B: 7.65%; C: 6.113%.
O=C(NCC(=O)N1CCCC1)c1nn(-c2ccccc2F)cc1O gave A: 1.987%; B: 11.17%.
COC1CCCN(C(=O)Nc2nc(C)n(C)n2)C1 (stereo not drawn) gave A: 2.107%; B: 12.68%; C: 21.82%.
c1ccc2c(c1)nc1n2[C@@H](CNCc2nccs2)COC1 gave A: -11.03%; B: 12.05%; C: 0.6826%.
c1csc(CN2C[C@H](OCC3CC3)[C@H]3COC[C@H]32)n1 gave B: 5.195%.
Cc1nnc(N2CC[C@H]3O[C@H](C(=O)NCc4ccccn4)CC[C@H]32)s1 gave B: 9.804%.
CN1CCN(c2ncccc2CNc2ncccc2C#N)CC1 gave A: -0.5376%; B: 14.5%; C: 17.2%.
CC[C@@H]1N(CC2CC2)CCC[C@]12CCC(=O)N2 gave B: 9.783%.
COc1ccc(NC(=O)C(C)n2cncn2)cn1 (stereo not drawn) gave A: -24.15%; B: 18.89%; C: 16.19%.
O=C(NC[C@H]1CC[C@H](c2ccnc3ncnn32)CC1)c1ccccn1 gave A: 29.99%; B: 7.874%; C: 7.752%.
c1cncc(CN2CCC(c3n[nH]c(C4CC4)n3)CC2)c1 gave A: -17.84%; B: -5.866%; C: -60.51%.
O=C(NC1CCN(c2ncccn2)CC1)c1cc2c(cc1O)CCCC2 gave A: -22.16%; B: 23.39%; C: 35.32%.
O=C(Nc1cccnc1-n1cccn1)N1CCCC(N2CCCC2)C1 (stereo not drawn) gave A: -27.5%; B: 10.08%; C: 18.93%.
O=C(Cn1cnnn1)NC(c1ccccc1)c1ccc2c(c1)CCCO2 (stereo not drawn) gave A: -5.087%; B: 6.469%; C: 16.02%.
CCn1nnc2c1C(COC)CN(Cc1cccs1)C2.O=C(O)C(F)(F)F (stereo not drawn) gave A: 5.084%; C: 13.31%.
[H][C@@]12CS(=O)(=O)C[C@]1([H])N(C(=O)CCn1cc(Cl)cn1)CCN2CC1CC1 gave A: 10.48%; C: -27.81%.
Cc1nn(-c2ccc(C(=O)O)cc2)c2c1C(c1cccs1)SCC(=O)N2 (stereo not drawn) gave A: 12.12%; B: 17.79%; C: 9.12%.
CCN(CC)c1ccc(-c2nc(-c3cccc(OC)c3OC)no2)cn1 gave A: 0.9081%; B: 18.54%; C: 7.948%.
COc1c(C2CCCN2Cc2nc(C)c(C)o2)c(C)nn1C (stereo not drawn) gave A: -0.5246%; B: 17.48%; C: 5.819%.
c1ccc(Cn2cc3c(n2)C(CNCC2CCOCC2)OCC3)nc1 (stereo not drawn) gave B: 13.01%.
CSc1ccc(CCNC(=O)Cc2c(C)n[nH]c2C)cc1 gave A: -1.197%; B: 11.63%; C: 2.335%.
COCCn1ccc(NC(=O)Nc2ccncc2)n1 gave A: -10.62%; B: 12.53%; C: 11.93%.

The first 5 entries again:

compound	A	B	C
COc1cccc(OC)c1C(=O)N1CC(=O)N(C2CCC2)CC(O)C1 (stereo not drawn)	20.73	11.23	1.234
N#CCCN(Cc1ccccn1)C(=O)Nc1cccc(F)c1	9.595	10.87	6.911
CC(C)N(C(=O)c1ccccc1-c1nc2c([nH]1)CCNC2)C(C)C	-9.658	0.2457	1.668
CCn1ccnc1C1CCN(Cc2cccc(Cl)c2)CC1	-25.71	6.115	-1.025
Cc1ccc2cc(C(=O)NCCn3nc4ccccn4c3=O)[nH]c2c1	16.15	3.067	-9.208